{"source": "PubChem BioAssay AID1224828 (NIAID, 2016)", "purpose": "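Knock-downs that increase or decrease LPS-induced p65 nuclear translocation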 (primary screen)", "system": "mouse RAW264.7 G9 macrophage reporter cells (GFP-p65, Tnf promoter-mCherry)", "reagent": "siRNA pool against mouse genes, 100 nM", "duration": "2 days siRNA transfection, then 40 min LPS before fixation", "conditions": "LPS (Salmonella minnesota R595) at 10 ng/ml", "measurement": "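Microscopy ratio of nuclear to perinuclear-ring GFP-p65 signal, scaled to the plate median; gene score is the average of two replicate robust z-scores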", "scale": "p65 translocation robust z-score: higher = more nuclear NF-kappaB p65 after LPS than the plate median; nuclear/cytoplasmic p65 ratio: higher = more nuclear NF-kappaB p65", "active means": "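Called active when z exceeds 3.3 or falls under -1.56 (median of Tlr4 controls), giving activity score of at least 50; no calls for control wells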", "calls": "active = hit (p65 shift raised or lowered); inactive = no clear change", "note": "The whole screen tested about 17,000 reagents; below is a random part of them. Over the whole deposit, 762 (4.5%) were called active. 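Active calls include both raised and lowered p65 entry, mostly lowered; wells with fewer than 50 cells lack a z-score.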 Raw values are not corrected between plates. No sequences are given here."}
{"gene":"Snx3","PubChem SID":"SID315471179","p65 translocation robust z-score":1.64,"nuclear/cytoplasmic p65 ratio, rep 1":1.61,"nuclear/cytoplasmic p65 ratio, rep 2":1.44,"low cell count flag":"enough cells to score","call":"inactive"}
{"gene":"Or9g3","PubChem SID":"SID315480228","p65 translocation robust z-score":0.21,"nuclear/cytoplasmic p65 ratio, rep 1":1.51,"nuclear/cytoplasmic p65 ratio, rep 2":1.55,"low cell count flag":"enough cells to score","call":"inactive"}
{"gene":"Lrtm2","PubChem SID":"SID315477670","p65 translocation robust z-score":-0.94,"nuclear/cytoplasmic p65 ratio, rep 1":1.38,"nuclear/cytoplasmic p65 ratio, rep 2":1.62,"low cell count flag":"enough cells to score","call":"inactive"}
{"gene":"Vmn1r178","PubChem SID":"SID315479027","p65 translocation robust z-score":2.93,"nuclear/cytoplasmic p65 ratio, rep 1":1.77,"nuclear/cytoplasmic p65 ratio, rep 2":1.3,"low cell count flag":"enough cells to score","call":"inactive"}
{"gene":"Slc38a3","PubChem SID":"SID315475270","nuclear/cytoplasmic p65 ratio, rep 1":1.35,"nuclear/cytoplasmic p65 ratio, rep 2":1.07,"low cell count flag":"fewer than 50 cells per well; well left out of scoring","call":"inactive"}
{"gene":"Tsnaxip1","PubChem SID":"SID315474497","nuclear/cytoplasmic p65 ratio, rep 1":1.33,"nuclear/cytoplasmic p65 ratio, rep 2":1.15,"low cell count flag":"fewer than 50 cells per well; well left out of scoring","call":"inactive"}
{"gene":"Cd38","PubChem SID":"SID315465853","p65 translocation robust z-score":-0.03,"nuclear/cytoplasmic p65 ratio, rep 1":1.37,"nuclear/cytoplasmic p65 ratio, rep 2":1.46,"low cell count flag":"enough cells to score","call":"inactive"}
{"gene":"Copg2","PubChem SID":"SID315471167","p65 translocation robust z-score":-0.28,"nuclear/cytoplasmic p65 ratio, rep 1":1.67,"nuclear/cytoplasmic p65 ratio, rep 2":1.59,"low cell count flag":"enough cells to score","call":"inactive"}
{"gene":"Fancb","PubChem SID":"SID315479330","p65 translocation robust z-score":1.74,"nuclear/cytoplasmic p65 ratio, rep 1":1.91,"nuclear/cytoplasmic p65 ratio, rep 2":2.05,"low cell count flag":"enough cells to score","call":"inactive"}
{"gene":"Hps3","PubChem SID":"SID315466040","p65 translocation robust z-score":0.91,"nuclear/cytoplasmic p65 ratio, rep 1":1.5,"nuclear/cytoplasmic p65 ratio, rep 2":1.54,"low cell count flag":"enough cells to score","call":"inactive"}
{"gene":"Dppa5a","PubChem SID":"SID315466561","p65 translocation robust z-score":1.66,"nuclear/cytoplasmic p65 ratio, rep 1":1.69,"nuclear/cytoplasmic p65 ratio, rep 2":1.58,"low cell count flag":"enough cells to score","call":"inactive"}

Continued, starting with the last 2 of the part before.
{"gene":"Hps3","PubChem SID":"SID315466040","p65 translocation robust z-score":0.91,"nuclear/cytoplasmic p65 ratio, rep 1":1.5,"nuclear/cytoplasmic p65 ratio, rep 2":1.54,"low cell count flag":"enough cells to score","call":"inactive"}
{"gene":"Dppa5a","PubChem SID":"SID315466561","p65 translocation robust z-score":1.66,"nuclear/cytoplasmic p65 ratio, rep 1":1.69,"nuclear/cytoplasmic p65 ratio, rep 2":1.58,"low cell count flag":"enough cells to score","call":"inactive"}
{"gene":"Apoa1","PubChem SID":"SID315465463","p65 translocation robust z-score":-0.19,"nuclear/cytoplasmic p65 ratio, rep 1":1.64,"nuclear/cytoplasmic p65 ratio, rep 2":1.54,"low cell count flag":"enough cells to score","call":"inactive"}
{"gene":"Cycs","PubChem SID":"SID315466210","p65 translocation robust z-score":1.17,"nuclear/cytoplasmic p65 ratio, rep 1":1.77,"nuclear/cytoplasmic p65 ratio, rep 2":1.95,"low cell count flag":"enough cells to score","call":"inactive"}
{"gene":"Glo1","PubChem SID":"SID315476847","p65 translocation robust z-score":1.69,"nuclear/cytoplasmic p65 ratio, rep 1":1.62,"nuclear/cytoplasmic p65 ratio, rep 2":1.63,"low cell count flag":"enough cells to score","call":"inactive"}
{"gene":"Ang2","PubChem SID":"SID315465412","p65 translocation robust z-score":0.05,"nuclear/cytoplasmic p65 ratio, rep 1":1.66,"nuclear/cytoplasmic p65 ratio, rep 2":1.6,"low cell count flag":"enough cells to score","call":"inactive"}
{"gene":"Rpp25","PubChem SID":"SID315476340","p65 translocation robust z-score":-1.23,"nuclear/cytoplasmic p65 ratio, rep 1":1.17,"nuclear/cytoplasmic p65 ratio, rep 2":1.15,"low cell count flag":"enough cells to score","call":"inactive"}
{"gene":"Nrros","PubChem SID":"SID315478323","nuclear/cytoplasmic p65 ratio, rep 1":1.31,"nuclear/cytoplasmic p65 ratio, rep 2":1.12,"low cell count flag":"fewer than 50 cells per well; well left out of scoring","call":"inactive"}
{"gene":"Msmb","PubChem SID":"SID315467994","p65 translocation robust z-score":0.3,"nuclear/cytoplasmic p65 ratio, rep 1":1.76,"nuclear/cytoplasmic p65 ratio, rep 2":1.7,"low cell count flag":"enough cells to score","call":"inactive"}
{"gene":"Fastkd1","PubChem SID":"SID315481383","p65 translocation robust z-score":0.52,"nuclear/cytoplasmic p65 ratio, rep 1":1.46,"nuclear/cytoplasmic p65 ratio, rep 2":1.5,"low cell count flag":"enough cells to score","call":"inactive"}
{"gene":"Ms4a3","PubChem SID":"SID315477248","p65 translocation robust z-score":-0.22,"nuclear/cytoplasmic p65 ratio, rep 1":1.85,"nuclear/cytoplasmic p65 ratio, rep 2":1.47,"low cell count flag":"enough cells to score","call":"inactive"}
{"gene":"Or8b54","PubChem SID":"SID315480426","p65 translocation robust z-score":1.49,"nuclear/cytoplasmic p65 ratio, rep 1":1.6,"nuclear/cytoplasmic p65 ratio, rep 2":1.45,"low cell count flag":"enough cells to score","call":"inactive"}
